Laboratory results from PubChem BioAssay AID1347423 (Functional Genomics Laboratory (NCATS/FGL), 2020).
Among all 52,000 sequences or so, about 210 (0.4%) were called active.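 The calls were made as follows: active = gene whose silencing raises cell survival under the drug, median off-target-corrected z-score across its silencing RNAs 2 or more; inactive = the rest.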 Some of the results follow.

Experiment: Resistance to Poly (ADP-Ribose) Polymerase inhibitor: Gene Identification via Genome-wide siRNA Screen
Conditions: mouse BRCA2 R2336H ES cells, olaparib, CellTiter-Glo viability; stronger effect = higher value
Procedure, shortened: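 Genome-wide siRNA screen (3 siRNAs/gene, 20 nM) in mouse ES cells carrying hypomorphic BRCA2 R2336H; olaparib 500 nM added 48 h post-transfection, CellTiter-Glo viability 72 h later. Normalized to plate-median negative control; MAD z-scores, gene median, seed-adjusted.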

Which z-score does the source give for “GGCGUGUUGAGACAAUCCUTT against 4930526D03Rik” here?
Its z-score is inactive: -0.988.

With GCAGUCAUCAAGGAUCAUUTT against Ncb5or as the sequence, how does the z-score read?
Its z-score is inactive: -1.19.

With GCACAAUUGCUCUAGGAUGTT against Slitrk3 as the sequence, how does the z-score read?
Its z-score is inactive: 0.521.

For GGGAUACGACUAAACUAUUTT against Gucy1a3, which z-score is on record?
Its z-score is inactive: -0.0594.

For CGUACUCUAUGAGGUGCCATT against Rab6ip1, which z-score is on record?
Its z-score is inactive: 0.703.

Which z-score does the source give for CGUGCAAGAAUGUAUUAGATT against Myo5a here?
The z-score was inactive: 0.949.

For GGACCUUCAGGAAAUGGCUTT against Mrps14, which z-score is on record?
Its z-score is inactive: 0.374.

With “CAUAUUCCUUGCAUUACAATT against A130052D22” as the sequence, how does the z-score read?
Its z-score is inactive: 0.111.

With GGUAGACCAGGAUUCAAAGTT against B3galt2 as the sequence, how does the z-score read?
The z-score was inactive: 1.42.

Which z-score does the source give for GGAUGAGAAAGAAAAGCACTT against Mettl1 here?
The z-score was inactive: -0.032.

Which z-score does the source give for GCCUGAAAGGCCUCACAAATT against Tceb3 here?
Its z-score is inactive: 1.4.

Which z-score does the source give for GGAUACUGUCAUGUCUUUATT against Olfr1 here?
The z-score was inactive: 0.615.

For CCUUCUCAACAGCGUGAUUTT against Dhx30, which z-score is on record?
The z-score was inactive: 0.682.

With GCUUGGUUUAACAAACAAGTT against Ppm1a as the sequence, how does the z-score read?
Its z-score is inactive: 1.14.

Which z-score does the source give for CCUCCAAGAAGGAUUCCAGTT against AI451006 here?
The z-score was inactive: -1.76.

With GCAAGUCCACCAGACAACATT against Csh2 as the sequence, how does the z-score read?
The z-score was inactive: 0.235.

Which z-score does the source give for GGAUGGUCGAGUGUUUAUUTT against Sec13l1 here?
The z-score was inactive: -2.87.

For GGACCACAUUACUAUACCATT against Sort1, which z-score is on record?
Its z-score is inactive: 0.931.

With GGAGUUCAAGCAGAACAUUTT against Tpd52 as the sequence, how does the z-score read?
Its z-score is inactive: -2.09.

With GCUAGAUGCAAAAUAUUCATT against Lbr as the sequence, how does the z-score read?
Its z-score is inactive: 0.41.

With GGCUAUGUUAAUUUGUCCCTT against Hc as the sequence, how does the z-score read?
Its z-score is inactive: 0.847.

Which z-score does the source give for GCCUGACGGCACGUAUGUATT against Acox1 here?
The z-score was inactive: 0.656.

For “GGGCUUUUUCAACAGAGGCTT against 2010107G23Rik”, which z-score is on record?
Its z-score is inactive: -0.274.

Which z-score does the source give for “GCUGUUAUAACCUUGUUACTT against 4930470D19Rik” here?
Its z-score is inactive: 1.22.

With GCAGAGCGGGAUUUCAUUCTT against Sh3glb2 as the sequence, how does the z-score read?
Its z-score is inactive: -1.34.

For GGACAAGUGUCAGAUAUCATT against Asah2, which z-score is on record?
Its z-score is inactive: 3.07.

With GCAGAGCUCUGUUAAGAAGTT against Pbp2 as the sequence, how does the z-score read?
Its z-score is inactive: 1.05.

For “GGCCUAUAGGUUGGGCUCUTT against 2810439M11Rik”, which z-score is on record?
The z-score was inactive: -1.42.

Which z-score does the source give for GGUCUAUUCUGUUGAGUAATT against Glud1 here?
The z-score was inactive: 2.01.

Which z-score does the source give for “GGAGCUGGAAGACACGAGATT against 4933409I22” here?
Its z-score is inactive: -0.905.

Which z-score does the source give for GGUCCUGAAGAAAUCCGAUTT against Clybl here?
The z-score was inactive: 2.54.

With “CAAGAUAACCAGGUUAAUCTT against 4930523C11Rik” as the sequence, how does the z-score read?
Its z-score is inactive: -0.671.

Which z-score does the source give for “GGAAUGGUCCCUCCAAUGATT against 2610317D23Rik” here?
Its z-score is inactive: 0.515.

For “GGGUGCCUAGCAGAUGAACTT against 5830484A20Rik”, which z-score is on record?
Its z-score is inactive: -1.43.

Which z-score does the source give for GGGCUCCUUCCUUGAAAAGTT against Dclre1c here?
Its z-score is inactive: 0.338.

With CCUUUACCGUAUCAGCGAGTT against Rassf6 as the sequence, how does the z-score read?
Its z-score is inactive: -0.622.

For “GGUGGGAAGAGGAAUACACTT against A930037G23Rik”, which z-score is on record?
Its z-score is inactive: -0.536.

With “GGAUUUUUCAACUUAACGUTT against 1110007L15Rik” as the sequence, how does the z-score read?
Its z-score is inactive: -0.108.

For GGACAGGAACCAAAAUGAGTT against Sfxn2, which z-score is on record?
Its z-score is inactive: -0.342.

Which z-score does the source give for GGAAGAAGAAGAUAAAGAATT against AF155546 here?
The z-score was inactive: -1.65.

For “GGAAGGAAUUGGUUACCUATT against 4933440J22Rik”, which z-score is on record?
The z-score was inactive: -1.04.

For GGAAGAAUACCAAAAGGUUTT against Msra, which z-score is on record?
The z-score was inactive: -0.206.

With “GCAACAUUGUAGAUUGAUATT against 2510049I19Rik” as the sequence, how does the z-score read?
Its z-score is inactive: -1.06.

For GCUACUACGGCCAUUGUGATT against Fbln2, which z-score is on record?
Its z-score is inactive: -1.75.

With GGAUGAAGACCUUUCGGAGTT against Mapk8ip as the sequence, how does the z-score read?
The z-score was inactive: -0.374.

For GGCUGUUUUUACCCUACUUTT against V1rg1, which z-score is on record?
Its z-score is inactive: -1.25.

Which z-score does the source give for GGCUCCAUUAAACUAAUCATT against Olfr1102 here?
The z-score was inactive: 1.47.

With “GCCAUGUUUCUACUGAUAGTT against 1700007K09Rik” as the sequence, how does the z-score read?
Its z-score is inactive: -1.02.

For “AGAGAGACUUAUGUCUUUUTT against 2610109H07Rik”, which z-score is on record?
The z-score was inactive: -0.561.

With CCCUGUUUCUUCUCAAAGUTT against Mrgpra2 as the sequence, how does the z-score read?
Its z-score is inactive: 1.96.

For GGCAUUUAUUACUACCUGATT against Lancl1, which z-score is on record?
The z-score was inactive: 1.28.

With GCCUAAUGCCAACUCACAATT against Samd7 as the sequence, how does the z-score read?
Its z-score is inactive: -0.863.

Which z-score does the source give for GGAAGGACAGCCUUUUGAUTT against Cyp2j13 here?
The z-score was inactive: 0.0214.

Which z-score does the source give for GGUUGGCUUCCUUAUCUUGTT against Cyp7b1 here?
Its z-score is inactive: -0.131.

With CGACCAAUUAUAGUUUAUGTT against Zranb1 as the sequence, how does the z-score read?
The z-score was inactive: 1.38.

Which z-score does the source give for GCUGGUAUCAGGAAUACCUTT against Cacna1e here?
Its z-score is inactive: 2.07.

With CGUAACUUUUUGCAUUUGATT against Anktm1 as the sequence, how does the z-score read?
The z-score was inactive: 0.312.

For “GGAGCUCAUCUACAUGCACTT against 1300012G16Rik”, which z-score is on record?
Its z-score is inactive: -0.375.

Which z-score does the source give for GGUGCUACAGAACGUAUGCTT against Fh1 here?
The z-score was inactive: 1.33.

With “CCCUUAAUAGACUUCUGAUTT against 2810405I11Rik” as the sequence, how does the z-score read?
The z-score was inactive: 1.53.

With CCCUUCAACUACAUGUUUUTT against Aicda as the sequence, how does the z-score read?
The z-score was inactive: 1.35.

With GGAAUUCAGCUUAAAACUGTT against Ctsl as the sequence, how does the z-score read?
Its z-score is inactive: 1.81.

With GCUGGGUUAUGAGAUUUCUTT against Tenc1 as the sequence, how does the z-score read?
The z-score was inactive: -1.49.

With GGCCAACUGCCAAUUUGUGTT against Rnf10 as the sequence, how does the z-score read?
The z-score was inactive: -0.478.

Which z-score does the source give for “CGUGACCACAACUCAAGAATT against 9030625A04Rik” here?
The z-score was inactive: 1.58.

Which z-score does the source give for “GGAUCCUAGCCUUUUAUCATT against C030018L16Rik” here?
The z-score was inactive: 1.22.
